This passage reports survivor count and T/C results from PubChem BioAssay AID280 (DTP/NCI, 2004).

For this assay, the system named is nude mice, LOX melanoma ip, survival T/C. The assay is described as follows: NCI In Vivo Anticancer Drug Screen. Data for tumor model Human Amelanotic Melanoma (LOX) (intraperitoneal) in NU/NU BALB/C (nude) mice. As to conditions: T/C endpoint: median survival time, higher T/C = longer survival. Here is the method: The antitumor activity of compounds was measured in mice bearing transplantable tumors. Survival or tumor size were measured and the results are expressed as the measurement made in the treated group (T) divided by the measurement made in the vehicle treated control group (C). The tumor model used in this assay is Human Amelanotic Melanoma (LOX) (intraperitoneal) in NU/NU BALB/C (nude) mice

The mark [1] stands for this setting: dose: 25.0 mg/kg/injection, schedule: Q04DX003 (ip), vehicle: Klucel (hydroxypropylcellulose) (HPC).
[2] abbreviates: dose: 300.0 mg/kg/injection, schedule: Q04DX003 (ip), vehicle: saline with Tween-80.
Setting [3] is: dose: 600.0 mg/kg/injection, schedule: Q04DX003 (ip), vehicle: saline with Tween-80.
[4] abbreviates: dose: 1200.0 mg/kg/injection, schedule: Q04DX003 (ip), vehicle: saline with Tween-80.
[5] abbreviates: dose: 1200.0 mg/kg/injection, schedule: Q04DX003 (ip), vehicle: saline.
[6] abbreviates: dose: 150.0 mg/kg/injection, schedule: Q04DX003 (ip), vehicle: saline with Tween-80.

The list is a part of this screen's results and no random one: it gathers tests that were run many times, whatever their T/C, doses with no T/C, and many T/C values between a quarter and a half above the control. Further doses and runs are listed elsewhere. T/C gives the treated animals as a percentage of the vehicle group. Some doses have a count of surviving animals in place of a T/C: the source holds a T/C of zero for them, seemingly a mark for toxic or unscored doses. Some survivor counts are full or nearly so, which does not show that the dose was tolerated: survival well below the control is almost never listed, so the zero probably covers shortened survival too. Counts of survivors are from the toxicity check (mostly the fifth day) where no day follows; animals may have died later. Schedule codes are those of the source, taken here to give the interval after Q, in days (D) or hours (H), and the number of doses after X. Some entries hold several experiments; their values stand side by side, smallest first. For survival time, this PubChem deposit counts one and a half times the control or more as active, and values a quarter to a half above the control carry no call in these data; other NCI protocols may use other cut-offs. Signs of the kind (2×) stand for listed records that agree. Some T/C values are followed by the survivors on the day toxicity was checked, most often the fifth; without a count, all were alive then.

For the compound `NC(=O)C1C=CN(Cc2ccccc2)C=C1`, the survivor count is on record as 0 of 6 on day 10 (dose: 400.0 mg/kg/injection, schedule: Q04DX003 (ip), vehicle: saline with Tween-80) and 0 of 6 on day 10 (dose: 800.0 mg/kg/injection, schedule: Q04DX003 (ip), vehicle: saline with Tween-80).

Turning to `O=C([O][Bi]([c]1ccccc1)[c]1ccccc1)c1ccccc1`, the T/C under setting [1] was 137 % of control and the T/C (dose: 100.0 mg/kg/injection, schedule: Q04DX003 (ip), vehicle: Klucel (hydroxypropylcellulose) (HPC)) is 137 % of control.

With `COc1c2c(c(O)c3c4c(c(C)cc13)C1OC3(C(OC)OC5CC(C)(O)C(OC6CC(C)(O)C(O)C(C)O6)C(C)O5)OC1C(OC)(O4)C31CO1)C(=O)C(O)CC2OC1CC(C)(O)C(OC(C)=O)C(C)O1` (stereo not given), the survivor count reads like this: (dose: 100.0 micrograms/kg/injection, schedule: Q04DX003 (ip), vehicle: saline) 1 of 6 on day 10; (dose: 200.0 micrograms/kg/injection, schedule: Q04DX003 (ip), vehicle: saline) 0 of 6 on day 10.

As for `N#Cc1c(-c2ccc(F)cc2)c(-c2ccc(F)cc2)nn(CCO)c1=O`, the T/C (dose: 200.0 mg/kg/injection, schedule: Q04DX003 (ip), vehicle: distilled water + Tween-80) is 128 % of control.

As to `CCC1(O)C(=O)OCc2c1cc1n(c2=O)Cc2cc3cc4c(cc3nc2-1)OCO4` (stereo not given), the survivor count is reported as 3 of 6 on day 10 (dose: 2.0 mg/kg/injection, schedule: Q04DX003 (ip), vehicle: saline with Tween-80); 0 of 6 on day 10 (dose: 4.0 mg/kg/injection, schedule: Q04DX003 (ip), vehicle: saline with Tween-80); 0 of 6 on day 10 (dose: 8.0 mg/kg/injection, schedule: Q04DX003 (ip), vehicle: saline with Tween-80); 0 of 6 on day 10 (dose: 16.0 mg/kg/injection, schedule: Q04DX003 (ip), vehicle: saline with Tween-80); 0 of 6 on day 10 (dose: 32.0 mg/kg/injection, schedule: Q04DX003 (ip), vehicle: saline with Tween-80).

On to `[Cl][Pt][Cl].[NH-]C(CO)C(=O)O` (stereo not given), for which the T/C (dose: 75.0 mg/kg/injection, schedule: Q04DX003 (ip), vehicle: water) was 139 % of control. Also, the survivor count (dose: 150.0 mg/kg/injection, schedule: Q04DX003 (ip), vehicle: water) is 1 of 6 on day 10.

Regarding `Cc1c(N)nc([C@H](CC(N)=O)NC[C@H](N)C(N)=O)nc1C(=O)N[C@H](C(=O)N[C@H](C)[C@@H](O)[C@H](C)C(=O)N[C@H](C(=O)NCCc1nc(-c2nc(C(=O)NCCC[S+](C)C)cs2)cs1)[C@@H](C)O)C(OC1OC(CO)C(O)C(O)C1OC1OC(CO)C(O)C(OC(N)=O)C1O)c1cnc[nH]1` (stereo not given in full), the T/C (dose: 16.0 mg/kg/injection, schedule: Q01DX001 (ip), vehicle: saline) was 134 % of control. The survivor count reads like this: (dose: 32.0 mg/kg/injection, schedule: Q01DX015 (ip), vehicle: saline) 6 of 6 on day 10; (dose: 64.0 mg/kg/injection, schedule: Q01DX005 (ip), vehicle: saline) 0 of 6 on day 10; (dose: 128.0 mg/kg/injection, schedule: Q04DX003 (ip), vehicle: saline) 0 of 6 on day 10; (dose: 256.0 mg/kg/injection, schedule: Q01DX001 (ip), vehicle: saline) 0 of 6 on day 10.

Turning to `COC1=CCC23C(=O)C=CC(=O)C2(C1)C(=O)c1ccccc1C3=O` (stereo not given), the survivor count is on record as 2 of 6 on day 10 (dose: 50.0 mg/kg/injection, schedule: Q04DX003 (ip), vehicle: saline with Tween-80) and 0 of 6 on day 10 (dose: 100.0 mg/kg/injection, schedule: Q04DX003 (ip), vehicle: saline with Tween-80).

`COc1cc2c(c(OC)c1OC)-c1ccc(OC)c(=O)cc1[C@@H](NC(C)=O)CC2`: the T/C (dose: 0.13 mg/kg/injection, schedule: Q04DX003 (ip), vehicle: saline) is 131 % of control. The survivor count is given as 1 of 6 on day 10 (dose: 4.0 mg/kg/injection, schedule: Q04DX003 (ip), vehicle: saline) and 0 of 6 on day 10 (dose: 8.0 mg/kg/injection, schedule: Q04DX003 (ip), vehicle: saline).

For `CCS/C(SC)=C(/c1ccccc1)[P+](c1ccccc1)(c1ccccc1)c1ccccc1`, the survivor count (dose: 6.25 mg/kg/injection, schedule: Q04DX003 (ip), vehicle: Klucel (hydroxypropylcellulose) (HPC)) is reported as 4 of 6 on day 10; the survivor count (dose: 12.5 mg/kg/injection, schedule: Q04DX003 (ip), vehicle: Klucel (hydroxypropylcellulose) (HPC)) is 1 of 6 on day 10; the survivor count under setting [1] is 0 of 6 on day 10; the survivor count (dose: 50.0 mg/kg/injection, schedule: Q04DX003 (ip), vehicle: Klucel (hydroxypropylcellulose) (HPC)) was 0 of 6 on day 10.

Consider `CCCCCCn1c(SC)nc(COC(=O)NC)c1COC(=O)NC`, for which the survivor count is, setting by setting: (dose: 270.0 mg/kg/injection, schedule: Q04DX003 (ip), vehicle: saline) 0 of 6 on day 10; (dose: 540.0 mg/kg/injection, schedule: Q04DX003 (ip), vehicle: saline) 0 of 6 on day 10.

With `O=C(O)Cc1cccc(=O)c(O)c1C(=O)O`, the survivor count is 6 of 6 on day 10 under setting [2], 0 of 6 on day 10 under setting [3] and 0 of 6 on day 10 under setting [4].

As to `NC(CCC(=O)NC(CS)C(=O)NCC(=O)O)C(=O)O` (stereo not given), the T/C under setting [5] was 130 % of control. Besides, where the note is “dose: 2000.0 mg/kg/injection, schedule: Q04DX003 (ip), vehicle: saline”, the survivor count was 5 of 6 on day 10.

On to `NCc1cc(O)c(O)c(O)c1`, for which the survivor count reads like this: (dose: 300.0 mg/kg/injection, schedule: Q04DX003 (ip), vehicle: saline) 6 of 6 on day 10; under setting [5], 2 of 6 on day 10.

Turning to `CNC(=O)c1cccc2c(Nc3ccc(NS(C)(=O)=O)cc3OC)c3cccc(C)c3nc12`, the T/C was 147 % of control (dose: 9.0 mg/kg/injection, schedule: Q04DX003 (ip), vehicle: suspension in saline); 144 % of control (dose: 12.5 mg/kg/injection, schedule: Q04DX003 (ip), vehicle: suspension in saline); 148 % of control (dose: 25.0 mg/kg/injection, schedule: Q04DX003 (ip), vehicle: suspension in saline); 149 % of control (dose: 50.0 mg/kg/injection, schedule: Q04DX003 (ip), vehicle: suspension in saline). The survivor count (dose: 100.0 mg/kg/injection, schedule: Q04DX003 (ip), vehicle: suspension in saline) is recorded as 1 of 6 on day 10.

Turning to `N=C(N)c1ccc(N=Nc2c(O)ccc3cc(O)ccc23)cc1`, the survivor count (dose: 75.0 mg/kg/injection, schedule: Q04DX003 (ip), vehicle: Klucel (hydroxypropylcellulose) (HPC)) was 5 of 6 on day 10 and the survivor count (dose: 150.0 mg/kg/injection, schedule: Q04DX003 (ip), vehicle: Klucel (hydroxypropylcellulose) (HPC)) is listed as 6 of 6 on day 10.

For `CCCCCCCCCCCCCCCCCCOCC(CO)OC` (stereo not given), the T/C by setting is: under setting [2], 126 % of control; under setting [3], 129 and 131 % of control. In addition, the survivor count under setting [4] was 0 of 6 on day 10 and 2 of 6 on day 10.

On to `O=C(NNC(=O)c1cccc(C(=O)NNC(=O)c2ccc(Cl)c(Cl)c2)n1)c1ccc(Cl)c(Cl)c1`, for which the T/C is 125 % of control (2×) (dose: 75.0 mg/kg/injection, schedule: Q04DX003 (ip), vehicle: saline with Tween-80); 131 and 136 % of control under setting [6]; 133 and 140 % of control under setting [2]; 126 [4 of 6 alive on day 10] and 145 % of control [5 of 6 alive on day 10] under setting [3]. In addition, the survivor count under setting [4] is reported as 0 of 6 on day 10.

For `CN=C(N)N/N=C(\C)c1ccc2sc3ccc(/C(C)=N/NC(N)=NC)cc3c2c1`, under setting [6], the T/C is 143 % of control.

`COc1cccc2c1C(=O)C1=C(C2=O)c2c(O)cc(CO)cc2C(O)C1O` (stereo not given): the survivor count (dose: 100.0 mg/kg/injection, schedule: Q04DX003 (ip), vehicle: saline + Tween-80 + alcohol) is 3 of 6 on day 10.

Turning to `C/C(=N\NC(=S)N1CC2CCC(CC2)C1)c1nccs1`, for the setting “dose: 6.25 mg/kg/injection, schedule: Q04DX003 (ip), vehicle: saline with Tween-80”, the survivor count is listed as 6 of 6 on day 10.
